Binding signal data for 30 sequences are collected here from article PMC7862700.

Sequences of proteins named here, by UniProt entry; tags and fusion partners are left off. A change or cut given only in a name is not applied to a line headed by its entry.
UniProt Q01892: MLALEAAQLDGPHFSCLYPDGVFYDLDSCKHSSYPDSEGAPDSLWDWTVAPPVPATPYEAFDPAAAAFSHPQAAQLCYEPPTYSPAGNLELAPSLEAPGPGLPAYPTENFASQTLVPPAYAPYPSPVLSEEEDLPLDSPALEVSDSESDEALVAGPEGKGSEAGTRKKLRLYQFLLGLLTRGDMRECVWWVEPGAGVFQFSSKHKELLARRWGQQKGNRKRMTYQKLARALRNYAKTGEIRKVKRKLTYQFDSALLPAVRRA
UniProt P41161: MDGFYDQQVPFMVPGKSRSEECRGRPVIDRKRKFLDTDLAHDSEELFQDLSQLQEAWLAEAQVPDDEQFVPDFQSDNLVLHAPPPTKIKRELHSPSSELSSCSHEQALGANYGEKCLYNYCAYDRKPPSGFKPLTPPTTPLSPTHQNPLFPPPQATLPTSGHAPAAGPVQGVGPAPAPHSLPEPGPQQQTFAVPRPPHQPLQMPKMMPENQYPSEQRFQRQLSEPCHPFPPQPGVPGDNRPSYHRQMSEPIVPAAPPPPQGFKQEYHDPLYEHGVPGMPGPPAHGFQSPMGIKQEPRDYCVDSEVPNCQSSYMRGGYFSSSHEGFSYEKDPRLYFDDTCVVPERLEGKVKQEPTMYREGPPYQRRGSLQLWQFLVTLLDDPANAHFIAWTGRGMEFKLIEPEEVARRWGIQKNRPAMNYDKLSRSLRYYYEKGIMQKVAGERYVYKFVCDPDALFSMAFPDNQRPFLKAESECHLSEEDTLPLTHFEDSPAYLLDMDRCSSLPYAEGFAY
UniProt Q99607: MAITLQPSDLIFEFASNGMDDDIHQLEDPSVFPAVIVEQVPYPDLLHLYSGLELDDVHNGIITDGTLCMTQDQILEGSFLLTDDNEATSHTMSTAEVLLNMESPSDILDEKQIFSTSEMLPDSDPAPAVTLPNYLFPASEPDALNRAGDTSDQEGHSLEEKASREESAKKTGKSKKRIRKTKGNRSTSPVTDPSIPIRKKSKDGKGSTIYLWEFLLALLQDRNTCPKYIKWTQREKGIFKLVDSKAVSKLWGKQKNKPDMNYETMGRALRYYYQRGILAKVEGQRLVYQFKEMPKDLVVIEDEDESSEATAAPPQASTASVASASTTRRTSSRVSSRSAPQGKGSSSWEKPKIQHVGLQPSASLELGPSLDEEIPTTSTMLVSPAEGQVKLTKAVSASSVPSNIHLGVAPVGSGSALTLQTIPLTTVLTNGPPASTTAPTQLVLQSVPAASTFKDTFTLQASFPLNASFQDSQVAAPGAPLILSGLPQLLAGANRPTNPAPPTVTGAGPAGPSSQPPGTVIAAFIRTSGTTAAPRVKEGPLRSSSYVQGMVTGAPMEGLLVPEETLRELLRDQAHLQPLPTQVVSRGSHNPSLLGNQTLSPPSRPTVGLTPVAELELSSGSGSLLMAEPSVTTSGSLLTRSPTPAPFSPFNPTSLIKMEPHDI

Holding throughout (assay): DAPPL (digital affinity profiling via proximity ligation, sequencing)
Common to all, as to conditions: 10 mM Tris-HCl pH 7.5, 50 mM NaCl, 1 mM DTT, 4% glycerol, room temperature, 30 min; GST-TFs on glutathione beads, 16-mer random dsDNA library, 0.1% …; high values mean tight binding; double strand, one strand shown; scale: fold enrichment (6-mer frequency, TF over GST control)

Test [1] deals with T1, FLI1 (UniProt Q01543).
T1 sequence: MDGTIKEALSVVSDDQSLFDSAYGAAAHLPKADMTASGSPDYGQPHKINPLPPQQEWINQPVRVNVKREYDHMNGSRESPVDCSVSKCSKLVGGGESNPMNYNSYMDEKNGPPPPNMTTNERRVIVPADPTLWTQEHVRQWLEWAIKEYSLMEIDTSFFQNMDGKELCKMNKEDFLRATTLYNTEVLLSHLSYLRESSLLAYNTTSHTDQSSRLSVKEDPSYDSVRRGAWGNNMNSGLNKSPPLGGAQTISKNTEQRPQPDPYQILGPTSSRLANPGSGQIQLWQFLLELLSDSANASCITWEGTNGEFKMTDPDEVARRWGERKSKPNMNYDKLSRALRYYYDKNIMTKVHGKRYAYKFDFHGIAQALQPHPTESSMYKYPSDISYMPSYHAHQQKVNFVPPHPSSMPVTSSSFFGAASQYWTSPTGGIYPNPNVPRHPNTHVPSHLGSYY

Test [2] has as its target T2, EHF (UniProt Q9NZC4).
T2 sequence: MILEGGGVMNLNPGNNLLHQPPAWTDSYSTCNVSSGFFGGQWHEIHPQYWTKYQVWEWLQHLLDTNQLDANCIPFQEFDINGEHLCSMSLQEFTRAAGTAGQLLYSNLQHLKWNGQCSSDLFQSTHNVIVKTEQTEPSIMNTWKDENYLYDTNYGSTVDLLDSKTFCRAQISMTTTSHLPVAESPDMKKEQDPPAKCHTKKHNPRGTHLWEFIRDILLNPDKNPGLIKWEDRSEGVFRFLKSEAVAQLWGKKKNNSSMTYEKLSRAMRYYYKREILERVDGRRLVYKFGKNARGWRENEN

Test [3] addresses SPIB (UniProt Q01892).
In test [4] the target is ETV5 (UniProt P41161).
Test [5] concerns the target ELF4 (UniProt Q99607).
For test [6], the target named is T3, ETV2 (UniProt O00321).
T3 sequence: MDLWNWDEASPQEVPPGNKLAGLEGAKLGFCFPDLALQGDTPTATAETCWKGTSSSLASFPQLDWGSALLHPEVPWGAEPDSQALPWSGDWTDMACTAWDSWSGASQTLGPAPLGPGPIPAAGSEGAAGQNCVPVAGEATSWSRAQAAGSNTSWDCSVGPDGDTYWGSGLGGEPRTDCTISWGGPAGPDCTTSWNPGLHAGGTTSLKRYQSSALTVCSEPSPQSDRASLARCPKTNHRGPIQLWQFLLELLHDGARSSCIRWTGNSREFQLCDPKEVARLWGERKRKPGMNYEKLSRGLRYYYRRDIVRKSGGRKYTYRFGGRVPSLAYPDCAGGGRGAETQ

For test [7], the target named is T4, ETV3L (UniProt Q6ZN32).
T4 sequence: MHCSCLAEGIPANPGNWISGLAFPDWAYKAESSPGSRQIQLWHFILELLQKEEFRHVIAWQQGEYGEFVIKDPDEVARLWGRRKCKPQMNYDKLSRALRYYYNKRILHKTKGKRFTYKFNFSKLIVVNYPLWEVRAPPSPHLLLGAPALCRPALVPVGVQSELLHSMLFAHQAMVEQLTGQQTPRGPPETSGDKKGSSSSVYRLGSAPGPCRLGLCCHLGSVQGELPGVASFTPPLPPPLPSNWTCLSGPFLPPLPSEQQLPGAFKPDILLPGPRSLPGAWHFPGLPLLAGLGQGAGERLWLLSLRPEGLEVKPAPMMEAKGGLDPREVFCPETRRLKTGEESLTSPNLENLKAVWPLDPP

This is a selection; strong and weak results do not stand in their true shares. At the low end of the ranking, values are background and their order means little.

Take AAGACG: the binding signal in test [1] is 0.784; in test [2], 0.783; in test [3] it was 0.807; in test [4], 0.83; in test [5], 0.785; in test [6], 0.693. The sequence also showed a binding signal in test [7] of 0.797.

With GGTACC, the binding signal came to 0.823 in test [1]; 0.755 in test [2]; 0.889 in test [3]; 0.796 in test [4]; 0.807 in test [5]; 0.758 in test [6]. This sequence registered a binding signal in test [7] of 0.806.

With CGCAGA, the binding signal in test [1] stood at 0.827; in test [2] it was 0.772; in test [3], 0.844; in test [4] it was 0.768; in test [5], 0.747; in test [6], 0.895. In test [7], this sequence had a binding signal of 0.688.

As for ACGAGA, the binding signal in test [1] came out at 0.707; in test [2], 0.659; in test [3] it was 0.685; in test [4], 0.651; in test [5], 0.686; in test [6], 0.719. The sequence further gave a binding signal in test [7] of 0.701.

For CCCAGG, the binding signal in test [1] was determined as 0.705; in test [2], 0.677; in test [3], 0.75; in test [4], 0.76; in test [5], 0.761; in test [6], 0.724. The binding signal in test [7] came out at 0.73.

Take TGAAGT: the binding signal is 0.79 in test [1]; 0.779 in test [2]; 0.76 in test [3]; 0.707 in test [4]; 0.784 in test [5]; 0.788 in test [6]. The sequence further gave a binding signal in test [7] of 0.736.

For GAGACG, the binding signal in test [1] was 0.331; in test [2], 0.353; in test [3], 0.305; in test [4], 0.325; in test [5], 0.319; in test [6], 0.363. Moreover, the binding signal in test [7] worked out at 0.312.

On to GTGTAG, for which the binding signal in test [1] is 0.661; in test [2], 0.628; in test [3], 0.611; in test [4], 0.634; in test [5], 0.67; in test [6] it was 0.788. This sequence also came in with a binding signal in test [7] of 0.654.

With GGTTAG, the binding signal came out at 0.78 in test [1]; 0.753 in test [2]; 0.788 in test [3]; 0.721 in test [4]; 0.748 in test [5]; 0.934 in test [6]. The same sequence registered a binding signal in test [7] of 0.836.

Consider TGAGTC, for which the binding signal is 0.196 in test [1]; 0.201 in test [2]; 0.181 in test [3]; 0.196 in test [4]; 0.2 in test [5]; 0.207 in test [6]. The binding signal in test [7] was found to be 0.204.

For ACAACG, the binding signal in test [1] was determined as 0.878; in test [2], 0.965; in test [3] it was 0.915; in test [4], 0.91; in test [5], 0.982; in test [6], 0.813. In addition, the binding signal in test [7] stood at 0.982.

Regarding GCTGGG, the binding signal in test [1] is 0.804; in test [2], 0.842; in test [3], 0.829; in test [4], 0.796; in test [5], 0.788; in test [6], 0.76. The sequence further displayed a binding signal in test [7] of 0.915.

GACGGC: the binding signal in test [1] was found to be 0.81; in test [2], 0.744; in test [3], 0.753; in test [4] it was 0.764; in test [5], 0.733; in test [6], 0.682. The sequence also gave a binding signal in test [7] of 0.748.

In the case of CCACGG, the binding signal in test [1] amounted to 0.911; in test [2], 0.854; in test [3], 0.852; in test [4], 0.851; in test [5], 0.949; in test [6], 0.814. Also, in test [7], the binding signal is 0.884.

On to GACATA, for which the binding signal in test [1] worked out at 0.868; in test [2], 0.832; in test [3], 0.836; in test [4] it was 0.918; in test [5] it was 0.884; in test [6], 0.902. This sequence returned a binding signal in test [7] of 0.867.

As for TGTCGT, the binding signal was found to be 0.842 in test [1]; 0.859 in test [2]; 0.812 in test [3]; 0.824 in test [4]; 0.768 in test [5]; 0.926 in test [6]. The sequence also registered a binding signal in test [7] of 0.808.

Consider CGTAGG, for which the binding signal in test [1] worked out at 0.697; in test [2], 0.657; in test [3] it was 0.65; in test [4], 0.694; in test [5], 0.703; in test [6], 0.632. In test [7], this sequence had a binding signal of 0.67.

For the sequence CCCGAG, the binding signal in test [1] is 0.826; in test [2] it was 0.982; in test [3], 0.939; in test [4], 0.84; in test [5], 0.826; in test [6], 0.816. In test [7], the binding signal was determined as 0.825.

Consider GCGAGG, for which the binding signal was 0.598 in test [1]; 0.566 in test [2]; 0.614 in test [3]; 0.653 in test [4]; 0.589 in test [5]; 0.572 in test [6]. This sequence also displayed a binding signal in test [7] of 0.554.

As for GAGATT, the binding signal in test [1] stood at 0.64; in test [2], 0.696; in test [3], 0.669; in test [4], 0.634; in test [5], 0.64; in test [6], 0.746. In addition, the binding signal in test [7] was 0.712.

As to CGTGTC, the binding signal came out at 0.752 in test [1]; 0.813 in test [2]; 0.793 in test [3]; 0.826 in test [4]; 0.752 in test [5]; 0.751 in test [6]. In test [7], this sequence showed a binding signal of 0.771.

Take CCAGGC: the binding signal in test [1] worked out at 0.407; in test [2], 0.418; in test [3], 0.384; in test [4], 0.4; in test [5] it was 0.44; in test [6], 0.456. The sequence further had a binding signal in test [7] of 0.428.

For the sequence GGGAGA, the binding signal in test [1] was determined as 0.318; in test [2], 0.329; in test [3], 0.31; in test [4] it was 0.346; in test [5], 0.312; in test [6], 0.335. The sequence further yielded a binding signal in test [7] of 0.3.

AGACTA: the binding signal was found to be 0.78 in test [1]; 0.763 in test [2]; 0.771 in test [3]; 0.764 in test [4]; 0.769 in test [5]; 0.865 in test [6]. Moreover, in test [7], the binding signal was determined as 0.768.

On to CAAGCG, for which the binding signal in test [1] is 0.917; in test [2], 0.998; in test [3], 0.949; in test [4] it was 0.891; in test [5] it was 0.884; in test [6] it was 0.796. In test [7], this sequence showed a binding signal of 0.914.

Take AGGCTG: the binding signal worked out at 0.697 in test [1]; 0.657 in test [2]; 0.588 in test [3]; 0.646 in test [4]; 0.665 in test [5]; 0.732 in test [6]. This sequence also registered a binding signal in test [7] of 0.71.

For the sequence GCGGTA, the binding signal in test [1] came out at 0.809; in test [2] it was 0.768; in test [3], 0.757; in test [4] it was 0.745; in test [5], 0.765; in test [6], 0.758. In addition, the binding signal in test [7] was found to be 0.822.

As for AGAGGC, the binding signal is 0.751 in test [1]; 0.662 in test [2]; 0.725 in test [3]; 0.652 in test [4]; 0.687 in test [5]; 0.789 in test [6]. This sequence also registered a binding signal in test [7] of 0.691.

As to TGAGCG, the binding signal in test [1] is 0.64; in test [2], 0.568; in test [3], 0.606; in test [4] it was 0.64; in test [5], 0.668; in test [6], 0.642. The same sequence displayed a binding signal in test [7] of 0.605.

For AGGCGA, the binding signal was 0.532 in test [1]; 0.501 in test [2]; 0.552 in test [3]; 0.516 in test [4]; 0.545 in test [5]; 0.498 in test [6]. This sequence also yielded a binding signal in test [7] of 0.524.
